Data on one molecule can be found in patent US20180319883A1 (Stanford University, published 2018).

Chains of the proteins cited; added tags and fusions are not shown. Residues count along the entry.
UniProt P78324, residues 31-148: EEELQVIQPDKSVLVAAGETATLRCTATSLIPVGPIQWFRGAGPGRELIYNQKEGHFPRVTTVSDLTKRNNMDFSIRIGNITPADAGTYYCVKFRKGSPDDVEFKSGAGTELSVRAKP

These are yes or no findings as the source states them, for the method shown. Some results given as binding are weak or reduced against the parent protein; the word gives no strength.

This test deals with human SIRPα displayed on yeast (human) (UniProt P78324). Kind of test: FACS on yeast expressing hSIRPα.

B1: CD20 BiME, anti-CD20/anti-SIRPα dual-variable-domain immunoglobulin (DVD-Ig) (bispecific antibody)
VH: QVQLQQPGAELVKPGASVKMSCKASGYTFTSYNMHWVKQTPGRGLEWIGAIYPGNGDTSYNQKFKGKATLTADKSSSTAYMQLSSLTSEDSAVYYCARSTYYGGDWYFNVWGAGTTVTVSSASTKGPEVQLQQSGAELVKPGASVKLSCTASGFNIKDYYIHWVQQRTEQGLEWIGRIDPEDGETKYAPKFQDKATITADTSSNTAYLHLSSLTSEDTAVYYCARWGAYWGQGTLVTVSS
VL: QIVLSQSPAILSASPGEKVTMTCRASSSVSYIHWFQQKPGSSPKPWIYATSNLASGVPVRFSGSGSGTSYSLTISRVEAEDAATYYCQQWTSNPPTFGGGTKLEIKRTVAAPQIVLTQSPAIMSASPGEKVTLTCSASSSVSSSYLYWYQQKPGSSPKLWIYSTSNLASGVPARFSGSGSGTSYSLTISSMEAEDAASYFCHQWSSYPRTFGAGTKLELK
For B1, the binding result was “binds”.
